Reference: PubChem BioAssay AID1259405 (NCATS, 2018)
Screen: 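Mouse-designed siRNAs used to find CHO productivity engineering targets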 (primary screen). Cells: Chinese hamster CHO-K1 ovary cells with stable secreted eGFP expression. Reagents: single siRNA against mouse genes, 0.8 pmol siRNA per well (2 µl of 400 nM stock). Timing: 3 days. Detection: 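Per-well intracellular GFP measured by laser scanning cytometry, plus viability from ATP luminescence, each relative to plate median of non-targeting control wells, in %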. Direction: GFP, % of control: higher = more GFP per well, higher productivity; viability (ATP), % of control: higher = more viable cells (more ATP). Rule for the call: 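a knock-down is called active if GFP reaches 120% or more of non-targeting control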.
The deposit covers about 50,000 reagents; this is an unselected part. Over the whole deposit, about 4,000 (8%) are marked active. 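Mouse siRNA library applied to hamster cells; one well for each siRNA.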 The numbers tell different reagents against one gene apart. No sequences are given here.

no.	target gene	siRNA no.	GFP, % of control	viability (ATP), % of control	Call
1	Epb41 (erythrocyte membrane protein band 4.1)	1	58.3	71.2	inactive
2	Epb41 (erythrocyte membrane protein band 4.1)	2	93.6	75.4	inactive
3	Epb41 (erythrocyte membrane protein band 4.1)	3	77.5	88.9	inactive
4	Pbsn (probasin)	1	83.7	99.6	inactive
5	Pbsn (probasin)	2	85.1	88.1	inactive
6	Pbsn (probasin)	3	63.1	52.1	inactive
7	Timm8a2 (translocase of inner mitochondrial membrane 8A2)	1	83.1	96.6	inactive
8	Timm8a2 (translocase of inner mitochondrial membrane 8A2)	2	164	72.5	active
9	Timm8a2 (translocase of inner mitochondrial membrane 8A2)	3	106	104	inactive
10	A4galt (alpha 1,4-galactosyltransferase)	1	128	90.5	active
11	A4galt (alpha 1,4-galactosyltransferase)	2	86.6	61.7	inactive
12	A4galt (alpha 1,4-galactosyltransferase)	3	92.3	32.2	inactive
13	Gstcd (glutathione S-transferase, C-terminal domain containing)	1	62.1	56.4	inactive
14	Gstcd (glutathione S-transferase, C-terminal domain containing)	2	81.5	85.4	inactive
15	Gstcd (glutathione S-transferase, C-terminal domain containing)	3	81.1	68	inactive
16	Rpl41 (ribosomal protein L41)	1	87.5	84.6	inactive
17	Rpl41 (ribosomal protein L41)	2	66.9	76.9	inactive
18	Rpl41 (ribosomal protein L41)	3	51.1	55	inactive
19	Or5h26 (olfactory receptor family 5 subfamily H member 26)	1	71.3	95.5	inactive
20	Or5h26 (olfactory receptor family 5 subfamily H member 26)	2	69.2	76.5	inactive
21	Or5h26 (olfactory receptor family 5 subfamily H member 26)	3	45.6	77.1	inactive

Looked up above.
Epb41 (erythrocyte membrane protein band 4.1) #1, Call → inactive
Or5h26 (olfactory receptor family 5 subfamily H member 26) #1, viability (ATP), % of control → 95.5
For “GFP, % of control”, Or5h26 (olfactory receptor family 5 subfamily H member 26) #2 has 69.2
For “viability (ATP), % of control”, Or5h26 (olfactory receptor family 5 subfamily H member 26) #3 is entered as 77.1

Continued.
no.	target gene	siRNA no.	GFP, % of control	viability (ATP), % of control	Call
22	Rreb1 (ras responsive element binding protein 1)	1	57	52.7	inactive
23	Rreb1 (ras responsive element binding protein 1)	2	90.9	59.5	inactive
24	Rreb1 (ras responsive element binding protein 1)	3	80.4	86.8	inactive
25	Btbd16 (BTB domain containing 16)	1	37.6	71.8	inactive
26	Btbd16 (BTB domain containing 16)	2	119	95.9	inactive
27	Btbd16 (BTB domain containing 16)	3	67	87.3	inactive
28	Krtap19-9b (keratin associated protein 19-9B)	1	88.2	88.4	inactive
29	Krtap19-9b (keratin associated protein 19-9B)	2	61.4	70.1	inactive
30	Krtap19-9b (keratin associated protein 19-9B)	3	90.7	82.1	inactive
31	Mrm1 (mitochondrial rRNA methyltransferase 1)	1	47	41	inactive
32	Mrm1 (mitochondrial rRNA methyltransferase 1)	2	57.8	68.9	inactive
33	Mrm1 (mitochondrial rRNA methyltransferase 1)	3	57.9	63.3	inactive
34	Sinhcaf (SIN3-HDAC complex associated factor)	1	89.6	70	inactive
35	Sinhcaf (SIN3-HDAC complex associated factor)	2	92.1	133	inactive
36	Sinhcaf (SIN3-HDAC complex associated factor)	3	114	118	inactive
